Source: the supplement of paper PMC12578635
Some of the results follow. No stated cut-off is given here; in the data, active = 150% or more and inactive = the rest. Most values come without repeats; read them as rough.

test system: Staphylococcus aureus JE2-lux inside RAW 264.7 macrophages; experiment: intracellular bacterial bioluminescence relative to DMSO vehicle; higher = higher intracellular bacterial metabolic activity; settings: 10 µM; treatment time 4 h; gentamicin 50 µg/ml

Intracellular bacterial bioluminescence, active:
O=C(NCc1cccnc1)C(=O)NCC1OCCCN1S(=O)(=O)c1ccc(Cl)cc1 (stereo unspecified) 175%

Intracellular bacterial bioluminescence, inactive:
O=C(O)COc1ccccc1/C=C1/SC(=S)N(NC(=O)c2ccco2)C1=O 112%
CCOc1cccc(-c2cc(C(=O)N/N=C3/C(=O)Nc4ccccc43)[nH]n2)c1 124%
O=C(NN1C(=O)CSC1=S)c1c(F)cccc1F 122%
CCCc1cc(C(=O)NC(c2ccccc2)c2ccnn2C)[nH]n1 (stereo unspecified) 118%
O=C(NCc1cccnc1)c1ccc(OC(F)F)cc1 105%
CCn1c(C)cc2cc(NS(=O)(=O)c3ccc4[nH]c(=O)[nH]c(=O)c4c3)ccc21 110%
Cc1cccc(OCc2nc(-c3ccc4c(c3)[nH]c(=O)c(=O)n4C(C)C)no2)c1 6.09%
O=C(Nc1nc2ccc(Br)cc2s1)c1ccc(N2C(=O)CCC2=O)cc1 117%
Fc1cccc2sc(Nc3nc4cc5c(cc4s3)OCCO5)nc12 103%
CCCN1CCN(c2ncnc3sc(C(=O)NCC4CCCO4)c(C)c23)CC1 (stereo unspecified) 102%
Clc1cccc(-n2ncc3c(NCc4ccco4)ncnc32)c1 71.1%
Cc1cc(-n2ccnc(NCCc3ccccc3)c2=O)ccc1Br 86.8%
Cc1cc2c(cc1C)NC(CC(=O)Nc1ccc(Cl)c(C(F)(F)F)c1)C(=O)N2 (stereo unspecified) 94.4%
COc1cc(N2CCn3c(nc4cc(Cl)ccc43)C2)ccc1NS(C)(=O)=O 100%
Nc1nc(SCC(=O)NCc2ccc(F)cc2)[nH]c(=O)c1NC(=O)c1ccc(F)c(F)c1 99.8%
CCOC(=O)CSC1=NS(=O)(=O)c2ccccc2N1 71.4%
COc1ccc(OC)c(NC(=O)C(=O)NCc2cccs2)c1 83.6%
CC(C)(C)c1ccc(-c2cc(=O)c3cc(NC(=O)c4cccnc4)ccc3o2)cc1 108%
Cc1ccc(-n2c(N)cc(=O)nc2SCC(=O)Nc2nccs2)cc1 89.8%
Cc1cc(C)nc(SCc2cc(=O)c(OC(=O)c3cc(Cl)ccc3Cl)co2)n1 109%
O=C(O)CCCN1C(=O)C2C3CC(C2C1=O)C1C(c2cccnc2)c2sc(=O)[nH]c2SC31 (stereo unspecified) 100%
Cc1ccc(Nc2nc(C(=O)NCc3ccco3)cc3occc23)cc1 53.5%
CC(=O)c1cccc(NC(=O)NN2CCOCC2)c1 99.1%
O=C(NCC1COCCO1)c1ccc(C(F)(F)F)nc1N1CCN(CCO)CC1 (stereo unspecified) 120%
CCCc1nnc(SCC(=O)Nc2ccccc2C(=O)OC)n1-n1cccc1 73%

Not a retest: two of the compounds above.
Intracellular bacterial bioluminescence, inactive:
O=C(O)CCCN1C(=O)C2C3CC(C2C1=O)C1C(c2cccnc2)c2sc(=O)[nH]c2SC31 (stereo unspecified) 100%
Cc1ccc(Nc2nc(C(=O)NCc3ccco3)cc3occc23)cc1 53.5%
